Test results as given in the supplement of paper PMC10849652.
This is one part of the list.

Chains of the proteins cited; added tags and fusions are not shown. Lines headed by an entry give the natural chain unless they say otherwise; changes in a name come on top.
UniProt Q9BXK1: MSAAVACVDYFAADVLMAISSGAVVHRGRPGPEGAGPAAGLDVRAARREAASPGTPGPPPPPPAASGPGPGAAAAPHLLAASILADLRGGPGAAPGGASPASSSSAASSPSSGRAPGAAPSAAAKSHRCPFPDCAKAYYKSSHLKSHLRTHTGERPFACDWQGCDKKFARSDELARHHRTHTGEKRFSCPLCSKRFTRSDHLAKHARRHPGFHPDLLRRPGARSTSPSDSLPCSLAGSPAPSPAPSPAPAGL
UniProt Q07666, whole entry, looked up: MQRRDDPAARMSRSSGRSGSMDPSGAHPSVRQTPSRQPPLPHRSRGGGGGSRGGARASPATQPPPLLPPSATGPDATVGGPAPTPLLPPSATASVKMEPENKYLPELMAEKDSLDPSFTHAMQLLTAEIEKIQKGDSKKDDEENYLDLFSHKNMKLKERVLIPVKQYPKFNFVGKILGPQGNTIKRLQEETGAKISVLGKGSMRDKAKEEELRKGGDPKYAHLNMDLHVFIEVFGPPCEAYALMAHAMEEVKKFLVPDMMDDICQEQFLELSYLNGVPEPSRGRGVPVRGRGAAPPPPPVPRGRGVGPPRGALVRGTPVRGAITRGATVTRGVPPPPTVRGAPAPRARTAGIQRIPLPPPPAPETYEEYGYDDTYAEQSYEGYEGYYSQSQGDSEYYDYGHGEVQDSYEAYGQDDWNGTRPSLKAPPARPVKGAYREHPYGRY
UniProt P52732: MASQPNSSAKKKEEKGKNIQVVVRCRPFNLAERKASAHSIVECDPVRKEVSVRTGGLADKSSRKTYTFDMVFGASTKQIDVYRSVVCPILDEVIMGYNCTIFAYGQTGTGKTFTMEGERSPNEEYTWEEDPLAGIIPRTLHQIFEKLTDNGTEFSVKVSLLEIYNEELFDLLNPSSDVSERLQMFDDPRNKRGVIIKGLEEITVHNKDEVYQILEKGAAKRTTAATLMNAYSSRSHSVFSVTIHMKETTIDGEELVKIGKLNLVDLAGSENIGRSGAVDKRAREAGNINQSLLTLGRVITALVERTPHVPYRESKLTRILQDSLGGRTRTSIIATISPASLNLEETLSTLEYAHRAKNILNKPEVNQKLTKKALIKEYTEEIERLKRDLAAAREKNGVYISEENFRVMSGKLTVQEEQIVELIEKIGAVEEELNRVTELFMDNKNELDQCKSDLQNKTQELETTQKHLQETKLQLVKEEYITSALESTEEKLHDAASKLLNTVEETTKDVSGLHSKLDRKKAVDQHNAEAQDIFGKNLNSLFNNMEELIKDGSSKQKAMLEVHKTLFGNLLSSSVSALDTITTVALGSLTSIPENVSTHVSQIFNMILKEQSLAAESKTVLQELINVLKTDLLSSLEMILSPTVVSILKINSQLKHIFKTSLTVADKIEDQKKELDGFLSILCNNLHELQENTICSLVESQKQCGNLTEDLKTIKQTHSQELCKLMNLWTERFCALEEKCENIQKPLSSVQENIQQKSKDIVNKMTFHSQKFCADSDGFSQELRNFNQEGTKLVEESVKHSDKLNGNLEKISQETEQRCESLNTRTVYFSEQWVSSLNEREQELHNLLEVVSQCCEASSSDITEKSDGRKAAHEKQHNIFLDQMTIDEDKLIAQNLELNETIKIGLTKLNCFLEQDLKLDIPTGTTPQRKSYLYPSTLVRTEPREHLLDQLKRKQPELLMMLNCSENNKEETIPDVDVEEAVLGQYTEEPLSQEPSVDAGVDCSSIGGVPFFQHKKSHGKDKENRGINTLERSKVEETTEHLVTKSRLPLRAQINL
UniProt Q9H3F6: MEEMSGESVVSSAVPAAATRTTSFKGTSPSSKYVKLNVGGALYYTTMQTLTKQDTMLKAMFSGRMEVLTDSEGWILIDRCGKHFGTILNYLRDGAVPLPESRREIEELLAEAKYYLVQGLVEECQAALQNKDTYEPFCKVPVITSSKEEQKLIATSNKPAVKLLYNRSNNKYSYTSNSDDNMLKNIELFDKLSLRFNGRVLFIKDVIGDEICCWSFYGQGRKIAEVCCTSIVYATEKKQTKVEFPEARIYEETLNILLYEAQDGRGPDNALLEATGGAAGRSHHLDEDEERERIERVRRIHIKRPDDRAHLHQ
UniProt Q8TBB5: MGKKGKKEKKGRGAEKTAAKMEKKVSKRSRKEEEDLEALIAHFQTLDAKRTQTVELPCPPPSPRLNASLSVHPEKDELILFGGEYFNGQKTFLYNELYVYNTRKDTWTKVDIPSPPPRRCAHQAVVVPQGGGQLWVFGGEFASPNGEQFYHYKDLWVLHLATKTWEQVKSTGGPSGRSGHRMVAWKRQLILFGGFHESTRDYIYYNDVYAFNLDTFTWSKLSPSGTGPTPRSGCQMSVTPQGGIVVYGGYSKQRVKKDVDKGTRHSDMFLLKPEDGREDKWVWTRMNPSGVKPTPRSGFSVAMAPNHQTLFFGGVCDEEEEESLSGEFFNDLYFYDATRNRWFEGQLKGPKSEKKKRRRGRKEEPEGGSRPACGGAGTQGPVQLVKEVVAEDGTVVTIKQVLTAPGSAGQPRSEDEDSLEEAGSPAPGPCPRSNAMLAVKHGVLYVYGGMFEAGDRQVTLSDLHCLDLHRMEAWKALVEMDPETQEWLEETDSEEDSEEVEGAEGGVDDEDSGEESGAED
UniProt Q9H9V9: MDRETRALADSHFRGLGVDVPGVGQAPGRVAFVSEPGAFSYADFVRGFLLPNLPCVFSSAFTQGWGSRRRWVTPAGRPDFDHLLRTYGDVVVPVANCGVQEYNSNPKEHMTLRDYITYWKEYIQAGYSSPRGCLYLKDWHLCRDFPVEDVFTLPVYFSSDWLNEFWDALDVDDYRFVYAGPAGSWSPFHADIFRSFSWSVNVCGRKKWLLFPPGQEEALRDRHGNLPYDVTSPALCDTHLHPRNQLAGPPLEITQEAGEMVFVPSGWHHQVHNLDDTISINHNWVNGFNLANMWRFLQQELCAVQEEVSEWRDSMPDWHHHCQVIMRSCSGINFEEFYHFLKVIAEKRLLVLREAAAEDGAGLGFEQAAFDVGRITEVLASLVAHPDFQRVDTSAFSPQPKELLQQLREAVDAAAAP
UniProt O95239: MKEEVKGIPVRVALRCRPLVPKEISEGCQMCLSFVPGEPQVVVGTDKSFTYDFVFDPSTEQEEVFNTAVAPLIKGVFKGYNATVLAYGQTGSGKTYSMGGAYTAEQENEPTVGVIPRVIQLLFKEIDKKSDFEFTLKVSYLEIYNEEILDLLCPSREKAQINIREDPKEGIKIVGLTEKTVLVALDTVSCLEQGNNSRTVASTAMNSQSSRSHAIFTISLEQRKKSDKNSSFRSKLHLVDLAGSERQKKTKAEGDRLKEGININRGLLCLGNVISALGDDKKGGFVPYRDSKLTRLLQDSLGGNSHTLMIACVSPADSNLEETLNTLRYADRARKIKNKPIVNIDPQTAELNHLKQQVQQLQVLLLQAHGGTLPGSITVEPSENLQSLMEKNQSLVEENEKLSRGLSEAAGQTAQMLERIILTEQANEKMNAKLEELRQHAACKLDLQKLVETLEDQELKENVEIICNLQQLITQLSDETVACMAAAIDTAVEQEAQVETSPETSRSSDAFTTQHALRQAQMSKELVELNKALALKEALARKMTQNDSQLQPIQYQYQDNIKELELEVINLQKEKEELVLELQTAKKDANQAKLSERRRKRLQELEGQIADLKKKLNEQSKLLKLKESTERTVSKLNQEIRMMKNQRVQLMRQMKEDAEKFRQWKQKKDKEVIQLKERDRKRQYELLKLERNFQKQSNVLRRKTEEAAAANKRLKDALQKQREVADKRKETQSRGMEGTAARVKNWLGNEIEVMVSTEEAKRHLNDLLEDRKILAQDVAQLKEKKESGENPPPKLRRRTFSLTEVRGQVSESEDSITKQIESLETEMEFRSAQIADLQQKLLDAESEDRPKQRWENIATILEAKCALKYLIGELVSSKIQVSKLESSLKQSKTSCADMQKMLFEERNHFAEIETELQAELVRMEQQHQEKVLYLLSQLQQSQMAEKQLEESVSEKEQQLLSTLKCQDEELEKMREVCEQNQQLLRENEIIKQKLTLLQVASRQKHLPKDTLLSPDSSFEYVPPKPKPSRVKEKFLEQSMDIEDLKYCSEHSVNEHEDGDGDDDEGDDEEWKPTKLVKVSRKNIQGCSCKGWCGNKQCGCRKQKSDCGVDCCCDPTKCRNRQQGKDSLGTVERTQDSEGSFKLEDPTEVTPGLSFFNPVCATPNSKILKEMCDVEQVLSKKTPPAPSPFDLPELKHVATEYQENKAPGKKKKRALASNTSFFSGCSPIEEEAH
UniProt Q8WVZ9: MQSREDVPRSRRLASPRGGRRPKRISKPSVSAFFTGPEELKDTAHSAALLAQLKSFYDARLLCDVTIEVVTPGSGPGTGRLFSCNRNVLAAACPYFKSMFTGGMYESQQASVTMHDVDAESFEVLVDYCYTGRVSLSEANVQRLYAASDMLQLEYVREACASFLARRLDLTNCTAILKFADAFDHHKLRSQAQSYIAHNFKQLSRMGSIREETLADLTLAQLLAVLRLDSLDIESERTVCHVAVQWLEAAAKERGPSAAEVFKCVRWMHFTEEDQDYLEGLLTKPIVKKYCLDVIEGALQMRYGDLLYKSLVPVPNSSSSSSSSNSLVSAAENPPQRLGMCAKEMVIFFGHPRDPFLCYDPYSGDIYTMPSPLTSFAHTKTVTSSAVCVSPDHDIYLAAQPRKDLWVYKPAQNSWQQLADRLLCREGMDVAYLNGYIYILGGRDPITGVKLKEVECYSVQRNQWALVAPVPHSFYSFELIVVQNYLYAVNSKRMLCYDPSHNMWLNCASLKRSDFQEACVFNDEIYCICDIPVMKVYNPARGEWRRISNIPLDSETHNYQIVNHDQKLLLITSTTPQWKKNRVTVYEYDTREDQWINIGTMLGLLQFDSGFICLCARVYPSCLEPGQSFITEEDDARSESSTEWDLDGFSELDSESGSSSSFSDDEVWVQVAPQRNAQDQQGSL
UniProt O60268: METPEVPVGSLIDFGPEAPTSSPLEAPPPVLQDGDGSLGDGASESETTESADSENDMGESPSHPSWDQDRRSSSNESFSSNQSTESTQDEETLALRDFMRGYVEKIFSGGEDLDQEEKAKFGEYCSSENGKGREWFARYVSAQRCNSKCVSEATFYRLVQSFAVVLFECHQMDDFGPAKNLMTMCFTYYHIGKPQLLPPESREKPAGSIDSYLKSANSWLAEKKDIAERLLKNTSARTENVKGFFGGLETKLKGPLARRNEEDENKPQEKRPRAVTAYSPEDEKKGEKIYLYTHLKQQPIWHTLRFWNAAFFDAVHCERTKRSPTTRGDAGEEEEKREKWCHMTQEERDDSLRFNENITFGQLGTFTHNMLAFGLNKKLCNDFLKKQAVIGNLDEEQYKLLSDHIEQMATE

Legend:
Experiment in all cases: log2 fold change, soluble protein after heating vs DMSO (PISA); higher = thermal stabilisation; K562 cells, 10 uM, 30 min; active = over 0.2 and 3.5 SD of the protein, either way, in both replicates (recomputed)
saracatinib = compound: CN1CCN(CCOc2cc(OC3CCOCC3)c3c(Nc4c(Cl)ccc5c4OCO5)ncnc3c2)CC1 [saracatinib]
Method in brief: (§1)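 K562 cells at 2×10^6 cells/mL were given 10 μM compound for 30 min. Aliquots then went through 3 min of heating across 48°C-58°C, were pooled, and were extracted in PBS with 0.5% NP-40 at 4°C, and the supernatant after 21,000xg for 90 min was quantified by TMTpro 16plex LC-MS/MS with channel sums equalised. Thermal stability relative to control samples, from duplicates, is given as log2 fold change.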

sotrastaurin = compound: CN1CCN(c2nc(C3=C(c4c[nH]c5ccccc45)C(=O)NC3=O)c3ccccc3n2)CC1 [sotrastaurin]
Method in brief: as §1

Tubastatin A = compound: CN1CCc2c(c3ccccc3n2Cc2ccc(C(=O)NO)cc2)C1 [Tubastatin A]
Method in brief: as §1

[1] = compound: CNC(=O)C1=CC=CC=C1NC2=NC(=NC=C2Cl)NC3=C(C=C(C=C3)N4CCOCC4)OC
Method in brief: as §1

defactinib = compound: CNC(=O)c1ccc(Nc2ncc(C(F)(F)F)c(NCc3nccnc3N(C)S(C)(=O)=O)n2)cc1 [defactinib]
Method in brief: as §1

rucaparib = compound: CNCc1ccc(-c2[nH]c3cc(F)cc4c3c2CCNC4=O)cc1 [rucaparib]
Method in brief: as §1

[2] = compound: CNc1nc(-c2ccc3c(N)n[nH]c3c2)cc(N2C[C@@H](C(=O)NC3CCCCC3)CC[C@H]2C)n1
Method in brief: as §1

encorafenib = compound: COC(=O)N[C@@H](C)CNc1nccc(-c2cn(C(C)C)nc2-c2cc(Cl)cc(NS(C)(=O)=O)c2F)n1 [encorafenib]
Method in brief: as §1

[3] = compound: COC(=O)[C@H](CCSC)NC(=O)C1=C(C=C(C=C1)NC[C@H](CS)N)C2=CC=CC=C2
Method in brief: as §1

[4] = compound: COC1=CC=C(C=C1)CN2C=CC3=C2C=C(C=C3)C(=O)NO
Method in brief: as §1

filanesib = compound: CON(C)C(=O)N1N=C(c2cc(F)ccc2F)S[C@@]1(CCCN)c1ccccc1 [filanesib]
Method in brief: as §1

idasanutlin = compound: COc1cc(C(=O)O)ccc1NC(=O)[C@@H]1N[C@@H](CC(C)(C)C)[C@](C#N)(c2ccc(Cl)cc2F)[C@H]1c1cccc(Cl)c1F [idasanutlin]
Method in brief: as §1

alisertib = compound: COc1cc(Nc2ncc3c(n2)-c2ccc(Cl)cc2C(c2c(F)cccc2OC)=NC3)ccc1C(=O)O [alisertib]
Method in brief: as §1

[5] = compound: COc1cc2nc(-c3cc(F)ccc3O)nc(N[C@@H]3CNC[C@H]3C(C)(C)O)c2cc1OC
Method in brief: as §1

gefitinib = compound: COc1cc2ncnc(Nc3ccc(F)c(Cl)c3)c2cc1OCCCN1CCOCC1 [gefitinib]
Method in brief: as §1

[6] = compound: COc1cccc2cc(-c3nc([C@H]4CC[C@H](C(=O)O)CC4)n4ncnc(N)c34)[nH]c12
Method in brief: as §1

lapatinib = compound: CS(=O)(=O)CCNCc1ccc(-c2ccc3ncnc(Nc4ccc(OCc5cccc(F)c5)c(Cl)c4)c3c2)o1 [lapatinib]
Method in brief: as §1

pictilisib = compound: CS(=O)(=O)N1CCN(Cc2cc3nc(-c4cccc5[nH]ncc45)nc(N4CCOCC4)c3s2)CC1 [pictilisib]
Method in brief: as §1

zotarolimus = compound: CO[C@H]1C[C@@H]2CC[C@@H](C)[C@@](O)(O2)C(=O)C(=O)N2CCCC[C@H]2C(=O)O[C@H]([C@H](C)C[C@@H]2CC[C@H](n3cnnn3)[C@H](OC)C2)CC(=O)[C@H](C)/C=C(\C)[C@@H](O)[C@@H](OC)C(=O)[C@H](C)C[C@H](C)/C=C/C=C/C=C/1C [zotarolimus]
Method in brief: as §1

alvocidib = compound: CN1CC[C@H](c2c(O)cc(O)c3c(=O)cc(-c4ccccc4Cl)oc23)[C@H](O)C1 [alvocidib]
Method in brief: as §1

Row | Target | log2 fold change (saracatinib) | log2 fold change (sotrastaurin) | log2 fold change (Tubastatin A) | log2 fold change [1] | log2 fold change (defactinib) | log2 fold change (rucaparib) | log2 fold change [2] | log2 fold change (encorafenib) | log2 fold change [3] | log2 fold change [4] | log2 fold change (filanesib) | log2 fold change (idasanutlin) | log2 fold change (alisertib) | log2 fold change [5] | log2 fold change (gefitinib) | log2 fold change [6] | log2 fold change (lapatinib) | log2 fold change (pictilisib) | log2 fold change (zotarolimus) | log2 fold change (alvocidib)
1 | KLF16 (UniProt Q9BXK1) | inactive: -0.004 | inactive: -0.17 | inactive: 0.111 | inactive: -0.088 | inactive: 0.005 | inactive: -0.017 | inactive: -0.098 | inactive: 0.041 | inactive: 0.212 | inactive: 0.117 | inactive: 0.154 | inactive: 0.091 | inactive: -0.077 | inactive: -0.07 | inactive: 0.021 | inactive: 0.04 | inactive: 0.042 | inactive: -0.027 |  | 
2 | KDM1A isoform 2 (UniProt O60341) | inactive: -0.061 | inactive: -0.139 | inactive: 0.127 | inactive: -0.032 | inactive: -0.065 | inactive: 0.14 | inactive: 0.021 | inactive: 0.052 | inactive: -0.032 | inactive: 0.019 | inactive: 0.004 | inactive: -0.03 | inactive: -0.055 | inactive: 0.07 | inactive: 0.022 | inactive: -0.036 | inactive: 0.068 | inactive: -0.008 | inactive: -0.009 | 
3 | KHDRBS1 (UniProt Q07666) | inactive: 0.025 | inactive: 0.018 | inactive: -0.006 | inactive: 0 | inactive: 0.042 | active: 0.248 | inactive: -0.009 | inactive: -0.009 | inactive: -0.05 | inactive: 0.06 | inactive: 0.041 | inactive: 0.002 | inactive: 0.014 | inactive: 0.129 | inactive: 0.026 | inactive: 0.008 | inactive: -0.072 | inactive: -0.072 | inactive: -0.012 | 
4 | KIF11 (UniProt P52732) | inactive: -0.059 | inactive: -0.2 | inactive: 0.05 | inactive: 0.275 | inactive: 0.017 | inactive: 0.183 | inactive: 0.088 | inactive: 0.174 | inactive: -0.055 | inactive: -0.004 | active: 1.1 | inactive: 0.026 | inactive: 0.011 | inactive: 0.043 | inactive: -0.002 | inactive: -0.063 | inactive: -0.018 | inactive: 0.046 | inactive: 0.074 | 
5 | KCTD10 (UniProt Q9H3F6) | inactive: 0.221 | inactive: -0.002 | inactive: 0.071 | inactive: -0.011 | inactive: 0.013 | inactive: -0.07 | inactive: 0.007 | inactive: 0.015 | inactive: -0.07 | inactive: 0.086 | inactive: 0.177 | inactive: -0.049 | inactive: -0.06 | inactive: 0.079 | inactive: -0.03 | inactive: -0.105 | inactive: 0.001 | inactive: -0.039 | inactive: -0.095 | 
6 | KLHDC4 (UniProt Q8TBB5) | inactive: -0.006 | inactive: -0.037 | inactive: -0.072 | inactive: 0.02 | inactive: 0.021 | inactive: 0.115 | inactive: -0.029 | inactive: 0.106 | inactive: -0.066 | inactive: -0.045 | active: 0.435 | inactive: 0.199 | inactive: -0.023 | inactive: 0.076 | inactive: 0.03 | inactive: 0.1 | inactive: -0.026 | inactive: 0.029 | inactive: 0.044 | 
7 | JMJD4 (UniProt Q9H9V9) | inactive: 0.022 | inactive: 0.041 |  |  |  |  | inactive: 0.012 |  |  | inactive: 0.091 | inactive: 0.159 | inactive: -0.092 |  | inactive: 0.108 | inactive: 0.028 |  | inactive: -0.026 |  |  | 
8 | KIF4A (UniProt O95239) | inactive: 0.054 |  | inactive: 0.089 |  | inactive: -0.04 | inactive: 0.199 | inactive: -0.169 | inactive: 0.217 | inactive: 0.106 |  |  |  |  |  |  |  |  | inactive: -0.013 | inactive: -0.037 | inactive: -0.223
9 | KBTBD7 (UniProt Q8WVZ9) | inactive: -0.039 | inactive: -0.008 |  | inactive: -0.055 |  |  | inactive: -0.268 |  |  |  | inactive: 0.143 |  |  |  | inactive: 0.129 |  |  | inactive: 0.114 |  | 
10 | KIAA0513 (UniProt O60268) |  | inactive: -0.126 | inactive: 0.153 | inactive: 0.018 | inactive: -0.062 |  |  |  | inactive: -0.017 | inactive: -0.021 | inactive: 0.028 | inactive: -0.017 | inactive: 0.157 | inactive: -0.035 | inactive: -0.331 | inactive: 0.168 | inactive: 0.011 | inactive: 0.104 | inactive: 0.032 | inactive: 0.074

Taken from above:
KIF11 (UniProt P52732) | log2 fold change (lapatinib): inactive: -0.018
KLF16 (UniProt Q9BXK1) | log2 fold change (Tubastatin A): inactive: 0.111
